Data from paper PMC7819943, “Rice protein-binding microarrays: a tool to detect cis-acting elements near promoter regions in rice”.
The other results are listed elsewhere or left out.

By UniProt entry, the sequences of proteins in these tests, tags left out.
UniProt Q0JBA9, entry or part of it: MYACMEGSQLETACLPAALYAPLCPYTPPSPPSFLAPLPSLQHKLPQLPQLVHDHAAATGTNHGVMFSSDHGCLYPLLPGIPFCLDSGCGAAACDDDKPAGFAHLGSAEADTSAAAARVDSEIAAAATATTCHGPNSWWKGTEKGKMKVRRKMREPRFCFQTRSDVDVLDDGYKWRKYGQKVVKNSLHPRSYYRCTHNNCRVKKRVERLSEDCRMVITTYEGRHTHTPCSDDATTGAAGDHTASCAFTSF

Biological target: OsWRKY34 (Oryza sativa, UniProt Q0JBA9 1-250)
Experiment: protein-binding microarray (RPBM); PBS, 2% BSA, 51.3 ng/ul salmon testes DNA, 50 uM zinc acetate, 200 nM TF, 25 C, 1 h; high values mean tight binding
Details: protein: recombinant; tags: N-terminal polyhistidine and DsRed monomer fusion (pET32a); label: CyDye5-dUTP incorporated in the synthesized complementary strand; 3' TTTTT single-stranded linker to array surface; dsDNA, one strand shown
Outline: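 Polyhistidine-tagged DsRed fusions of transcription factors, joined at the N-terminus, were expressed in E. coli BL21-CodonPlus and isolated on Ni–NTA. They were incubated at 200 nM for 1 h at 25 °C on a custom Agilent array, double-stranded and BSA-blocked, in PBS with 2% BSA, salmon testes DNA and 50 µM zinc acetate. The binding signal is per-feature fluorescence intensity (arbitrary units) read on an Axon 4000B scanner after washing.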

In order of falling binding signal:
1. TACTTTATCCGCGGCGGGTAGCTGGGGAGGGAGGGGAGGCCGGAGTCACCTAGTGCAG  22500 fluorescence intensity (a.u.)
2. TCGAGAGGTGGGGAGGGGAGGGGAGCAGAGGGCGGCATCGCGGAGTCACCTAGTGCAG  18600 fluorescence intensity (a.u.)
3. CTACACACAAACTTCCAACTTTTCTGTCACATCGTTCCAACGGAGTCACCTAGTGCAG  11900 fluorescence intensity (a.u.)
4. AAATTCGAGACGGTTTGGGTGTTTGACTATTTGGGCTGGTCGGAGTCACCTAGTGCAG  11800 fluorescence intensity (a.u.)
5. GTAGCTGTCATATTCGACCTTCATTCCCATCTGCCTCGCACGGAGTCACCTAGTGCAG  11500 fluorescence intensity (a.u.)
6. GTGTGTGGGTGGTGATGTACTTTTTTTCATTTTTCTTGGTCGGAGTCACCTAGTGCAG  11100 fluorescence intensity (a.u.)
7. CCTGCATTCCCACTTTGTACGCCATGGTTTCTCGATTTCTCGGAGTCACCTAGTGCAG  11000 fluorescence intensity (a.u.)
8. CCGCCGCCTCTGCATTCTCTTCTACCTCCTCACCGTCGTCCGGAGTCACCTAGTGCAG  11000 fluorescence intensity (a.u.)
9. CAAATTCTAGACTTTTTGGTGGGTTGCGTGCGAGGGGTGGCGGAGTCACCTAGTGCAG  10500 fluorescence intensity (a.u.)
10. GGGTGATCAATGGTGCGGCAGCCTATCCGTCCTCTTGCTCCGGAGTCACCTAGTGCAG  10500 fluorescence intensity (a.u.)
11. CTGCGTCTCCTCGGTCTCCTCGCGAGCTCGCCGCCGGCCGCGGAGTCACCTAGTGCAG  10100 fluorescence intensity (a.u.)
12. AGCTGCTGTCGGAGGGGCTGGGCCTCCCCGCGGGGTACCTCGGAGTCACCTAGTGCAG  10100 fluorescence intensity (a.u.)
13. CTGGTTGTGTGGGCGGAAGTTGGCTATGCTGGCGCATGGGCGGAGTCACCTAGTGCAG  9920 fluorescence intensity (a.u.)
14. AGGATTCTTACATATCATTCACTTCTTCACCAAGTCTTCTCGGAGTCACCTAGTGCAG  9860 fluorescence intensity (a.u.)
15. ACTTGTTTATTCTTCTATTGGTTGCAGGGATTATGGTTGACGGAGTCACCTAGTGCAG  9830 fluorescence intensity (a.u.)
16. TATAGCATCTCATTTAACCCGATGTTACCTGTTTTGAGACCGGAGTCACCTAGTGCAG  9820 fluorescence intensity (a.u.)
17. ATAGTTAAGGGACCCCGTATATCTGGTTTTACGGTTGGGGCGGAGTCACCTAGTGCAG  9730 fluorescence intensity (a.u.)
18. TTTAAGTACTTCCTTGTTTCGTCGTATGCCTAATATAAATCGGAGTCACCTAGTGCAG  9700 fluorescence intensity (a.u.)
19. ACTGGGTCAATGTTTTCTCCCCACAAGTTTGCTCTTTCCACGGAGTCACCTAGTGCAG  9660 fluorescence intensity (a.u.)
20. CGCCGTAATATACCACCATTCTCTTTTTCCGTCCGGGTCACGGAGTCACCTAGTGCAG  9650 fluorescence intensity (a.u.)
21. AATTCTCGTAACATTCTTATTTTATACGTTCGGAAATCATCGGAGTCACCTAGTGCAG  9520 fluorescence intensity (a.u.)
22. GGGCTCCTTATACTGCAATACTAGCTTAATTCTGTTTTCACGGAGTCACCTAGTGCAG  9350 fluorescence intensity (a.u.)
23. CCTCGAGCCCCGTGCGCCATCCGTCGCGTCGACCATTAAGCGGAGTCACCTAGTGCAG  9310 fluorescence intensity (a.u.)
24. CTGGCCTGCCGCTGCTGCTTGTTGCTTCTGCTACTGTGTTCGGAGTCACCTAGTGCAG  9210 fluorescence intensity (a.u.)
25. GCTATACTATATATATTGCAAAATTTGTCCCATGTACATTCGGAGTCACCTAGTGCAG  9140 fluorescence intensity (a.u.)
26. TCTTTCCTTTTGATTTGGTTTCTTTCCGTCCGATTTGTGACGGAGTCACCTAGTGCAG  8950 fluorescence intensity (a.u.)
27. CTGCATTGCCCCGGACTTTCTGCGACCCCTTTTTCCCGACCGGAGTCACCTAGTGCAG  8900 fluorescence intensity (a.u.)
28. GTCTCAAAAACTCATTCTCCACACGTAATGGATACTTTTGCGGAGTCACCTAGTGCAG  8800 fluorescence intensity (a.u.)
29. ATATTTTATCATCATCAGCCGATTGCCTTTATATCATCATCGGAGTCACCTAGTGCAG  8720 fluorescence intensity (a.u.)
30. GCGCTAATTTAACTGAACTTATAGTGGCCTTCATTATCATCGGAGTCACCTAGTGCAG  8610 fluorescence intensity (a.u.)
31. GAATTTCATTAACAAATGTCAAATATCGTGTGTTCATGTGCGGAGTCACCTAGTGCAG  8540 fluorescence intensity (a.u.)
32. CAGCGGCTGCATTGCCTGATCTTGACTGAGATGCTGTTGACGGAGTCACCTAGTGCAG  8420 fluorescence intensity (a.u.)
33. GACGGGAGAATGTAGACCGCTCCTCAACTCTGTGCTCGTTCGGAGTCACCTAGTGCAG  8320 fluorescence intensity (a.u.)
34. TTTCCCGTCTCGCGTCGCGAACTAACTTAAATATAACCATCGGAGTCACCTAGTGCAG  8260 fluorescence intensity (a.u.)
35. CTCTATATAAGCCCCACAATGCCCACCACCAGCTTGTCACCGGAGTCACCTAGTGCAG  8230 fluorescence intensity (a.u.)
36. CTTTTGGATGCCAGCTCACAGCTCATCAATACATCACCATCGGAGTCACCTAGTGCAG  8230 fluorescence intensity (a.u.)
37. TTGTTTTAGGTATATGCTCTTTAGTTTGTACTGTGTTCTGCGGAGTCACCTAGTGCAG  8210 fluorescence intensity (a.u.)
38. ATCCCACATGATATCTGACCGTCACAGACATCGTCTTAACCGGAGTCACCTAGTGCAG  8190 fluorescence intensity (a.u.)
39. GAGGACCCTACAGGTTAGGATCTCGGGAGTGGGATAGGGGCGGAGTCACCTAGTGCAG  8170 fluorescence intensity (a.u.)
40. CATCTTCAACAGCACCATCTCCATCTGATAGCCAGATTGCCGGAGTCACCTAGTGCAG  8110 fluorescence intensity (a.u.)
41. GATCGATTGCCATGCCATCCCACCCACCGTTCGTTGGTTTCGGAGTCACCTAGTGCAG  8110 fluorescence intensity (a.u.)
42. TCTAGATATTGTCTTTCTTTTCATACTTATAGCTGCATCACGGAGTCACCTAGTGCAG  8090 fluorescence intensity (a.u.)
